Laboratory results taken from US20250019350A1, “SYNTHESIS OF THE PROSTATE SPECIFIC MEMBRANE ANTIGEN (PSMA) RADIOLABELED INHIBITOR [18F]DCFPYL” (Progenics Pharmaceuticals, Inc, priority 2023, published 2025).

Assay: Retention of product on HLB/SepPak cartridge during production (AIO waste line radiodetector)

Q: Which results are given for `O=C(O)CC[C@H](NC(=O)N[C@@H](CCCCNC(=O)c1ccc([18F])nc1)C(=O)O)C(=O)O` [Lot 18F-DCFPyL, 2-(3-{1-carboxy-5-[(6-[18F]fluoro-pyridine-3-carbonyl)-amino]-pentyl}ureido)-pentanedioic acid]?
A: product retained on the SepPak (pH 2 ascorbate in the collection vial): > 98%; portion of the product not retained on the SepPak (pH 6 ascorbate in the collection vial): approximately 40%
